Test results as given in US9694078B2, “Tigecycline compositions and methods of preparation” (priority 2005, dated 2017).
At least one structure is not confirmed: it was looked up by name or label, or the drawing left a doubt.

Assay: Epimerization of minocycline versus tigecycline lyophilized at pH about 5.0, HPLC
Format: physicochemical
Settings: lyophilized at pH about 5.0, cake stored 20 days at 40° C. and 75% relative humidity
Protocol: In another experiment, minocycline was lyophilized at a pH of about 5.0 and the lyophilized cake was stored for 20 days at 40° C. and 75% relative humidity. At the end of the 20 days, the cake was analyzed by HPLC. The epimer of minocycline was measured to be present at a level of 2.65% by mass. By comparison, when tigecycline was lyophilized at a pH of about 5.0 and the sample stored under the same conditions, but for only 4 days followed by HPLC analysis, the tigecycline epimer was measured to be at a level of 5.40%, over twice as much even though tigecycline was only stressed for ⅕^th as long as minocycline. Thus, tigecycline epimerizes much more readily than minocycline, and epimerization is a much more significant problem with tigecycline than it is for minocycline.

In the case of `CN(C)c1ccc(O)c2c1C[C@H]1C[C@H]3[C@H](N(C)C)C(O)=C(C(N)=O)C(=O)[C@@]3(O)C(O)=C1C2=O` [minocycline], the “level of the epimer of minocycline” value is reported as 2.65 % by mass.
